According to the supplement of paper PMC6411743:
± gives the standard deviation of the averaged measurements. The list shows a part of the results.

Sequences of proteins named here, by UniProt entry; tags and fusion partners are left off. A change or cut given only in a name is not applied to a line headed by its entry.
UniProt Q5JPH6: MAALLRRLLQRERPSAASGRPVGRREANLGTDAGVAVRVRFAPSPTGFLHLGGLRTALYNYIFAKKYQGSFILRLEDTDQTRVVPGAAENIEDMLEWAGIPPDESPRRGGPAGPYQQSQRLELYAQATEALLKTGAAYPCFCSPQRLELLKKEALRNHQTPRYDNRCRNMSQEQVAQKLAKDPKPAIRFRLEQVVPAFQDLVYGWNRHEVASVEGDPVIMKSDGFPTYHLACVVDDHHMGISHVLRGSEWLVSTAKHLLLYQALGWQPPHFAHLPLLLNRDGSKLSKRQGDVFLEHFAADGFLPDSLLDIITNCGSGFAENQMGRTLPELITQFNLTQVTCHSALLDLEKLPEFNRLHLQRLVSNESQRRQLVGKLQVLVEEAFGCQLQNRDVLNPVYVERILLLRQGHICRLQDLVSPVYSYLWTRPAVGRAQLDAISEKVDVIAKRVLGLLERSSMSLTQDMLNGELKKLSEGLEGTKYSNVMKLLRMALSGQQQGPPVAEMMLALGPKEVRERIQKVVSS
UniProt Q9BXC9: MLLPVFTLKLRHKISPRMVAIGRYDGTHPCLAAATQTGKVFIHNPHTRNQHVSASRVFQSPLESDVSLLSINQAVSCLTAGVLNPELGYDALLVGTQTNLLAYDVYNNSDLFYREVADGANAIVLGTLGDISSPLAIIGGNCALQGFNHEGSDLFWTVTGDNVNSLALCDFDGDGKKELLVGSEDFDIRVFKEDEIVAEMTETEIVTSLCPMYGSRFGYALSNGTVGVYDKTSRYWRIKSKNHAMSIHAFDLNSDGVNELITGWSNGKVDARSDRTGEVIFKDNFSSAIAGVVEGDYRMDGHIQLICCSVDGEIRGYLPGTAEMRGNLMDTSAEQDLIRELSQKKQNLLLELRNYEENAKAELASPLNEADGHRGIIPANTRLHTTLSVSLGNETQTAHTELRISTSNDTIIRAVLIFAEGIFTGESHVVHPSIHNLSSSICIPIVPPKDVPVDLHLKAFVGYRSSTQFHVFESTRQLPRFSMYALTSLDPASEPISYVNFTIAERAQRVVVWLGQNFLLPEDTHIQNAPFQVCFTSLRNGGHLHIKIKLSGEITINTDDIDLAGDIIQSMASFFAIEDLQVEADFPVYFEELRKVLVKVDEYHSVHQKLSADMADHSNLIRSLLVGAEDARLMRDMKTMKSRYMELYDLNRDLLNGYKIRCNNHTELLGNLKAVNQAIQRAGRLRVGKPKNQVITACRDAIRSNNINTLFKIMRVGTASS
UniProt Q96S82: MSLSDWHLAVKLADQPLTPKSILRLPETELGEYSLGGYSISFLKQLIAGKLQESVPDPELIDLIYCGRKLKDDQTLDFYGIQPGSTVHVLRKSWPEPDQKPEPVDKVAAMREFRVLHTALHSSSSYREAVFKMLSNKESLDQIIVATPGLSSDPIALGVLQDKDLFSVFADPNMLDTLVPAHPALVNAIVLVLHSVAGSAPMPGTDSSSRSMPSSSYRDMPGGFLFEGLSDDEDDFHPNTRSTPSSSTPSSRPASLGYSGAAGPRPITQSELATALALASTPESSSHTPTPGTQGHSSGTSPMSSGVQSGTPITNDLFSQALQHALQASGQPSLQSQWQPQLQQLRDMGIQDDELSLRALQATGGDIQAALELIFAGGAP
UniProt P42694: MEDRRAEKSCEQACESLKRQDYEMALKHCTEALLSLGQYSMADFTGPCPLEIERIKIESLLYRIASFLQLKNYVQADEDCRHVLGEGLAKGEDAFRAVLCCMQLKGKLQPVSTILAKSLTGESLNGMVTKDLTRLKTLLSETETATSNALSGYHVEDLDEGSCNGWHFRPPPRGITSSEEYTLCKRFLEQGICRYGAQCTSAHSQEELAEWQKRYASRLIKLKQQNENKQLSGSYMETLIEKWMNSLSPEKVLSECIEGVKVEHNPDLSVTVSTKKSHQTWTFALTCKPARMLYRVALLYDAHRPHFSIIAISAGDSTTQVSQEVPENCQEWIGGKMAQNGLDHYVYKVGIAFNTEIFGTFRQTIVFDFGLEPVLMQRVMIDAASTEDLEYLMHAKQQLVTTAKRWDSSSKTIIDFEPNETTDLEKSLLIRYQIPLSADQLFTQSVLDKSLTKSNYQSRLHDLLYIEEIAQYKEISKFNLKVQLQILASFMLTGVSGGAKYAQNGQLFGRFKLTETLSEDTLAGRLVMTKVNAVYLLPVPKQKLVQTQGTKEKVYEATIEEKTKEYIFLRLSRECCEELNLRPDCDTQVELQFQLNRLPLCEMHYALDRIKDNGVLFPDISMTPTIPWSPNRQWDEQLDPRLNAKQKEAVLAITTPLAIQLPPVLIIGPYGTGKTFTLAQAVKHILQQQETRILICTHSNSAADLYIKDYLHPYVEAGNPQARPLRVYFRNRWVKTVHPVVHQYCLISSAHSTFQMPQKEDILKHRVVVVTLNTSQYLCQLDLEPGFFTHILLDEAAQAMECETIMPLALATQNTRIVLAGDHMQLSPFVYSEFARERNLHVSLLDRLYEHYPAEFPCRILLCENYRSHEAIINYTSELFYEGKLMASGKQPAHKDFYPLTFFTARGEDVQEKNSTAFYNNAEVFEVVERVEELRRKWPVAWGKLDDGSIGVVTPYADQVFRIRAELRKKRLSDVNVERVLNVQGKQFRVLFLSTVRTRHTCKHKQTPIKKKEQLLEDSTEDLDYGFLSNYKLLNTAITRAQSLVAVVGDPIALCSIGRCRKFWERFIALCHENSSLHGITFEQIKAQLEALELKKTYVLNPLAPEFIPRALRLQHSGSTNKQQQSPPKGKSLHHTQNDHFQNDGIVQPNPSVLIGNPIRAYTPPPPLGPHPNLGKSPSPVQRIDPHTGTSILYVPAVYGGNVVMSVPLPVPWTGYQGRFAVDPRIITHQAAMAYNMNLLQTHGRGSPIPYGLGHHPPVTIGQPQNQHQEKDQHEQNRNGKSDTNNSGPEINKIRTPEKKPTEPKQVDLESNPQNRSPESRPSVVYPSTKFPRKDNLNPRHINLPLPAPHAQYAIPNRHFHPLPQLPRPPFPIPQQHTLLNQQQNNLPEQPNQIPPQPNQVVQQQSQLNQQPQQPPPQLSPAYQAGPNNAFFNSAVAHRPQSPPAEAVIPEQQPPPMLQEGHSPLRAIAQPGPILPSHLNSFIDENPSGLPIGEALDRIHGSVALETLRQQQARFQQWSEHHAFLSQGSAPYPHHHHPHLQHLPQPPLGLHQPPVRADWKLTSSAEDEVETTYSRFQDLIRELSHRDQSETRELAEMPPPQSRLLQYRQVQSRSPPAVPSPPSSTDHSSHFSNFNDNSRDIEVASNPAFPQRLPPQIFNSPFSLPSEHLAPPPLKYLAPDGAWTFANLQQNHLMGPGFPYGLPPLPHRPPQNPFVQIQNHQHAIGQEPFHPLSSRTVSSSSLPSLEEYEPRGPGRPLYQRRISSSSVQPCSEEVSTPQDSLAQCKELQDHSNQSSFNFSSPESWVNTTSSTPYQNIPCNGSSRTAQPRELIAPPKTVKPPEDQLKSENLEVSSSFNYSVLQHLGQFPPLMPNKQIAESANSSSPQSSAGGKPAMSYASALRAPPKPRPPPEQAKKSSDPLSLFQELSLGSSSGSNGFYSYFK
UniProt Q9Y606: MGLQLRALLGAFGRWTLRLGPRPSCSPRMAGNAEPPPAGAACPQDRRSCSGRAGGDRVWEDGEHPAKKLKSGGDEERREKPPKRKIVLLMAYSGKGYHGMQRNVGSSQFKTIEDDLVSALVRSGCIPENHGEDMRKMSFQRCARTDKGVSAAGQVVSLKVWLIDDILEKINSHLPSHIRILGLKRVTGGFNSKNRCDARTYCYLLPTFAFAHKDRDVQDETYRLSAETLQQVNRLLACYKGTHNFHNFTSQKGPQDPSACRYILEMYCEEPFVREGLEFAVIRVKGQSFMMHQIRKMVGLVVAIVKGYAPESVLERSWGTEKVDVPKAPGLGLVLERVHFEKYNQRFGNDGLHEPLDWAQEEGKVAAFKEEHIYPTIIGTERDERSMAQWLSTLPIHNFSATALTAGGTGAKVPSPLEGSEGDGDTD

Compound: Nc1nc2c(ncn2[C@@H]2O[C@H](COP(=O)(O)OP(=O)(O)OP(=O)(O)O)[C@@H](O)[C@H]2O)c(=O)[nH]1 [guanosine triphosphate]
Assay: NP40-soluble protein abundance relative to vehicle (solubility fold change) (ratio); higher = more soluble protein in presence of GTP
Experimental: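 Solubility proteome profiling in Jurkat crude lysate. Lysate was treated with Mg-GTP (0.1-10 mM) for 10 min at room temperature and 3 min at 37 °C, then solubilised with 0.8% NP40 and benzonase, followed by ultracentrifugation. Proteins were quantified by TMT10 LC-MS/MS; the value is the NP40-soluble abundance relative to the NP40-processed vehicle, from 3 independent experiments.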

“H3BTB7 and related entries (UniProt Q5JPH6)” showed an NP40-soluble protein abundance (concentration: 0.1mM) of 1.04 ± 0.069, an NP40-soluble protein abundance (concentration: 0.5mM) of 1 ± 0.05 and an NP40-soluble protein abundance (concentration: 1mM) of 0.947 ± 0.045. For the same target, the NP40-soluble protein abundance (concentration: 2mM) was 0.958 ± 0.078, the NP40-soluble protein abundance (concentration: 4mM) was 0.926 ± 0.075 and the NP40-soluble protein abundance (concentration: 6mM) was 0.923 ± 0.065. The NP40-soluble protein abundance (concentration: 8mM) was 0.887 ± 0.053 and the NP40-soluble protein abundance (concentration: 10mM) was 0.878 ± 0.071.

Work on “H3BRL0 and related entries (UniProt Q9BXC9)” yielded an NP40-soluble protein abundance (concentration: 0.1mM) of 1.02 ± 0.14, an NP40-soluble protein abundance (concentration: 0.5mM) of 1.14 ± 0.07 and an NP40-soluble protein abundance (concentration: 1mM) of 1.08 ± 0.12. For the same target, the NP40-soluble protein abundance (concentration: 2mM) was 1.07 ± 0.17, the NP40-soluble protein abundance (concentration: 4mM) was 1.13 ± 0.13 and the NP40-soluble protein abundance (concentration: 6mM) was 1.08 ± 0.17. It also gave an NP40-soluble protein abundance (concentration: 8mM) of 1.04 ± 0.15 and an NP40-soluble protein abundance (concentration: 10mM) of 0.93 ± 0.13.

Work on “H3BUV9 and related entries (UniProt Q96S82)” yielded an NP40-soluble protein abundance (concentration: 0.1mM) of 0.867 ± 0.049, an NP40-soluble protein abundance (concentration: 0.5mM) of 0.711 ± 0.08 and an NP40-soluble protein abundance (concentration: 1mM) of 0.916 ± 0.048. It also gave an NP40-soluble protein abundance (concentration: 2mM) of 0.942 ± 0.12, an NP40-soluble protein abundance (concentration: 4mM) of 0.942 ± 0.11 and an NP40-soluble protein abundance (concentration: 6mM) of 0.813 ± 0.1. For the same target, the NP40-soluble protein abundance (concentration: 8mM) was 0.833 ± 0.21 and the NP40-soluble protein abundance (concentration: 10mM) was 0.985 ± 0.036.

Work on “J3QS41 and related entries (UniProt P42694)” yielded an NP40-soluble protein abundance (concentration: 0.1mM) of 1.04 ± 0.024, an NP40-soluble protein abundance (concentration: 0.5mM) of 1.06 ± 0.024 and an NP40-soluble protein abundance (concentration: 1mM) of 1.06 ± 0.049. The NP40-soluble protein abundance (concentration: 2mM) was 1.032 ± 0.01, the NP40-soluble protein abundance (concentration: 4mM) was 1.06 ± 0.012 and the NP40-soluble protein abundance (concentration: 6mM) was 1.06 ± 0.034. It also gave an NP40-soluble protein abundance (concentration: 8mM) of 1.09 ± 0.025 and an NP40-soluble protein abundance (concentration: 10mM) of 1.05 ± 0.037.

In the case of “G8JLB3 and related entries (UniProt Q9Y606)”, the NP40-soluble protein abundance (concentration: 0.1mM) is reported as 0.978 ± 0.041, the NP40-soluble protein abundance (concentration: 0.5mM) is reported as 0.945 ± 0.033 and the NP40-soluble protein abundance (concentration: 1mM) is reported as 0.925 ± 0.016. For the same target, the NP40-soluble protein abundance (concentration: 2mM) was 0.909 ± 0.026, the NP40-soluble protein abundance (concentration: 4mM) was 0.936 ± 0.01 and the NP40-soluble protein abundance (concentration: 6mM) was 0.881 ± 0.015. The NP40-soluble protein abundance (concentration: 8mM) was 0.881 ± 0.053 and the NP40-soluble protein abundance (concentration: 10mM) was 0.886 ± 0.06.
